The results in this text go back to patent publication US20090118188A1.

By UniProt entry, the sequences of proteins in these tests, tags left out. Where a name states a change or a piece, a line headed by the entry shows the natural chain unless it says otherwise.
UniProt P27037: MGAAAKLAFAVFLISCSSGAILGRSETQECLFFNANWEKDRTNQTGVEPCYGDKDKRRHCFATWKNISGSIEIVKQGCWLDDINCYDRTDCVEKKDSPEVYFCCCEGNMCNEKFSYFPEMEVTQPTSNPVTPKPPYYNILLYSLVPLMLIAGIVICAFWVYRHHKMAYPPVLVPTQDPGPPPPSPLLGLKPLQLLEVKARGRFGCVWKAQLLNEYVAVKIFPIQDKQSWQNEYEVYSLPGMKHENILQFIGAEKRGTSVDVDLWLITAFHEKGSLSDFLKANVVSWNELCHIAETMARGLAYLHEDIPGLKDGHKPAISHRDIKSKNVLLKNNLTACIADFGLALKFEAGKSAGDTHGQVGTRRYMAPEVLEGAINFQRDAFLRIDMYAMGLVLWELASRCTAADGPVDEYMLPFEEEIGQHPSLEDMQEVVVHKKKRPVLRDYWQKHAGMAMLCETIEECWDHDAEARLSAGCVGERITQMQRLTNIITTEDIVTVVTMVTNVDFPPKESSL

These are yes or no findings as the source states them, for the method shown. Some results given as binding are weak or reduced against the parent protein; the word gives no strength.

The experiment has as its target T1, GDF-11 (UniProt O95390).
T1 sequence (looked up): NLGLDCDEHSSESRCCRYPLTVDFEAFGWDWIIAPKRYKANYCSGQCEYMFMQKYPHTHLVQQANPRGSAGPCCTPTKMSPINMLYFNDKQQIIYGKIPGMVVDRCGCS
Kind of experiment: Biacore SPR, ligand amine-coupled to CM5 chip. Background: In SPR one partner is held on a chip, and binding of the other changes the refractive index at the surface.

Take “ActRIIa-mFc (from UniProt P27037 21-135) (Fc fusion)”: the binding result is listed as “binds”.
